Test results reported in paper PMC10119292, “Characterization of a fold in TANGO1 evolved from SH3 domains for the export of bulky cargos” (Nature Communications, 2023).
Results are given in words; binding and its absence hold for the method and conditions named.

Protein sequences, listed by entry. Tags and fused reporters are not part of them. Lines headed by an entry give the natural chain unless they say otherwise; changes in a name come on top.
UniProt P27986: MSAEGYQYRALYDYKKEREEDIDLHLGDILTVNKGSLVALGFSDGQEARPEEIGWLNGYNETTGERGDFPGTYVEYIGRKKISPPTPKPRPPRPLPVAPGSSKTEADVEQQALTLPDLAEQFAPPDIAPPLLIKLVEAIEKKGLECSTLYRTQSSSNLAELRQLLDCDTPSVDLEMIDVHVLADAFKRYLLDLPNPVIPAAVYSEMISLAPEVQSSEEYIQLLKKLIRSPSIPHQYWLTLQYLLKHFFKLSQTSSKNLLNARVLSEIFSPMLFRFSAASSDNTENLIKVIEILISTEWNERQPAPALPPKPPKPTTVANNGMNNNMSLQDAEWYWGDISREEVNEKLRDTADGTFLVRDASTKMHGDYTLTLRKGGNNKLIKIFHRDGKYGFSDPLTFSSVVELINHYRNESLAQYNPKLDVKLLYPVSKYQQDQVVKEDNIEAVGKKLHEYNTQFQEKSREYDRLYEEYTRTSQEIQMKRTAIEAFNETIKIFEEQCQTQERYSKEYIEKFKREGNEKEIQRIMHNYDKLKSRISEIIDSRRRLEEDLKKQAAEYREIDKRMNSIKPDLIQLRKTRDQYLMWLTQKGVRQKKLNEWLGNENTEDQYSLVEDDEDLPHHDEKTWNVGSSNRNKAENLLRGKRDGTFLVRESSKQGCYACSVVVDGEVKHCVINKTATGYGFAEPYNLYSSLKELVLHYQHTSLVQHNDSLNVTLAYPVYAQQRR

Tests used:
[1] = target: T1, human MIA protein, residues 19-131 (human) (UniProt Q16674); assay: condition: 10-fold molar excess of peptide over 182 µM protein; NMR titration; 1H-15N HSQC of [U-15N]-enriched domain (160-215 µM) without and with 10-fold molar excess of peptide (24-fold for MIA with SOS1 peptide); 298 K; PBS pH 7.4 (hsTANGO1(21-131): 25 mM HEPES pH 7.4, 150 mM NaCl, 1% CHAPS); both purified
T1 sequence: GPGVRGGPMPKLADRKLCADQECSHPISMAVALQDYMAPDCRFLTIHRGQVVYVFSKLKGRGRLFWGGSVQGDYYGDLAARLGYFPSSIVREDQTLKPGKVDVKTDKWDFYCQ

[2] = target: T2, human TALI MOTH domain, residues 23-123 (human) (UniProt Q96PC5); assay: condition: 10-fold molar excess of peptide over 196 µM protein; NMR titration; 1H-15N HSQC of [U-15N]-enriched domain (160-215 µM) without and with 10-fold molar excess of peptide (24-fold for MIA with SOS1 peptide); 298 K; PBS pH 7.4 (hsTANGO1(21-131): 25 mM HEPES pH 7.4, 150 mM NaCl, 1% CHAPS); both purified
T2 sequence: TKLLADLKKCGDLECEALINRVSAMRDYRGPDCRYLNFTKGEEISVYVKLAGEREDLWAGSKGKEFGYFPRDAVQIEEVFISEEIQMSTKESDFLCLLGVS

[3] = target: T3, human Otoraplin, residues 18-128 (human, UniProt Q9NRC9 18-128); assay: condition: 10-fold molar excess of peptide over 165 µM protein; NMR titration; 1H-15N HSQC of [U-15N]-enriched domain (160-215 µM) without and with 10-fold molar excess of peptide (24-fold for MIA with SOS1 peptide); 298 K; PBS pH 7.4 (hsTANGO1(21-131): 25 mM HEPES pH 7.4, 150 mM NaCl, 1% CHAPS); both purified
T3 construct: Otoraplin, human, UniProt Q9NRC9, residues 18-128; [U-15N]-enriched for the NMR titrations; also called Otoraplin (18-128); not shown: His-tag, N-terminal, cleaved
T3 sequence (looked up): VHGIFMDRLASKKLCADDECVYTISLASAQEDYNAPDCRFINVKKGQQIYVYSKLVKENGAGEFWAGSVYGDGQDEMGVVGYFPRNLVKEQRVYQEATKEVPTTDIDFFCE

[4] = target: T1, human MIA protein, residues 19-131 (human); assay: condition: 24-fold molar excess of peptide over 200 µM protein; NMR titration; 1H-15N HSQC of [U-15N]-enriched domain (160-215 µM) without and with 10-fold molar excess of peptide (24-fold for MIA with SOS1 peptide); 298 K; PBS pH 7.4 (hsTANGO1(21-131): 25 mM HEPES pH 7.4, 150 mM NaCl, 1% CHAPS); both purified
[5] = target: T4, Drosophila melanogaster TANGO1 cargo-recognition domain, residues 30-139 (Drosophila melanogaster) (UniProt Q9VMA7); assay: NMR titration; 1H-15N HSQC of [U-15N]-enriched domain (160-215 µM) without and with 10-fold molar excess of peptide (24-fold for MIA with SOS1 peptide); 298 K; PBS pH 7.4 (hsTANGO1(21-131): 25 mM HEPES pH 7.4, 150 mM NaCl, 1% CHAPS); both purified
T4 sequence: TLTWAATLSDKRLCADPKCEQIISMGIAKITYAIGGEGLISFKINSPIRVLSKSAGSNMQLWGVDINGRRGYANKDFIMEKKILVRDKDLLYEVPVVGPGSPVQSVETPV

[6] = target: T2, human TALI MOTH domain, residues 23-123 (human); assay: condition: 10-fold molar excess of peptide over 200 µM protein; NMR titration; 1H-15N HSQC of [U-15N]-enriched domain (160-215 µM) without and with 10-fold molar excess of peptide (24-fold for MIA with SOS1 peptide); 298 K; PBS pH 7.4 (hsTANGO1(21-131): 25 mM HEPES pH 7.4, 150 mM NaCl, 1% CHAPS); both purified

Measured: binding

p85α(91-104), class I PPII helix peptide (from UniProt P27986 91-104)
no binding: [1] | [2] | [3]

B1: SOS1 (1149-1158), class II PPII helix peptide (peptide, UniProt Q07889 1149-1158, looked up)
peptide: VPPPVPPRRR
notes: SOS1, residues 1149-1158; also called class II ligand; PPII class II ligand; source: synthetic peptide
no binding: [4] | [5] | [6]
